# Measured values from the supplement of paper PMC8728848.
# The other results are listed elsewhere or left out.
# B1: a L Fucosidase (Thermotoga maritima) (protein)
# chain: MASMKPRYKPDWESLREHTVPKWFDKAKFGIFIHWGIYSVPGWATPTGELGKVPMDAWFFQNPYAEWYENSLRIKESPTWEYHVKTYGENFEYEKFADLFTAEKWDPQEWADLFKKAGAKYVIPTTKHHDGFCLWGTKYTDFNSVKRGPKRDLVGDLAKAVREAGLRFGVYYSGGLDWRFTTEPIRYPEDLSYIRPNTYEYADYAYKQVMELVDLYLPDVLWNNMGWPEKGKEDLKYLFAYYYNKHPEGSVNDRWGVPHWDFKTAEYHVNYPGDLPGYKWEFTRGIGLSFGYNRNEGPEHMLSVEQLVYTLVDVVSKGGNLLLNVGPKGDGTIPDLQKERLLGLGEWLRKYGDAIYGTSVWERCCAKTEDGTEIRFTRKCNRIFVIFLGIPTGEKIVIEDLNLSAGTVRHFLTGERLSFKNVGKNLEITVPKKLLETDSITLVLEAVEE
# Tests used:
# Test in all cases: glycan array binding signal (z-score within array); higher = stronger binding
# Conditions in all cases: glycan notation: IUPAC condensed, linker removed; mutation: D224N
# Fuc(a1-2)Gal = molecular target: Fuc(a1-2)Gal
# Outline: (§1)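 Arrays were curated from the Consortium for Functional Glycomics database, 3228 in total, and kept only where the protein sequence was available. Binding is expressed as a within-array Z-score. This score was averaged across arrays of the same protein sequence at different concentrations or buffers and across linkers, and negative values can be read as non-binding.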
# Fuc(a1-2)Gal(b1-3)GalNAc = molecular target: Fuc(a1-2)Gal(b1-3)GalNAc
# Outline: as §1
# [1] = molecular target: Fuc(a1-2)Gal(b1-3)GalNAc(a1-3)[Fuc(a1-2)]Gal(b1-4)Glc
# Outline: as §1
# [2] = molecular target: Fuc(a1-2)Gal(b1-3)GalNAc(a1-3)[Fuc(a1-2)]Gal(b1-4)GlcNAc
# Outline: as §1
# [3] = molecular target: Fuc(a1-2)Gal(b1-3)GalNAc(b1-3)Gal
# Outline: as §1
# [4] = molecular target: Fuc(a1-2)Gal(b1-3)GalNAc(b1-3)Gal(a1-4)Gal(b1-4)Glc
# Outline: as §1
# [5] = molecular target: Fuc(a1-2)Gal(b1-3)GalNAc(b1-4)[Neu5Ac(a2-3)]Gal(b1-4)Glc
# Outline: as §1
# Fuc(a1-2)Gal(b1-3)GlcNAc = molecular target: Fuc(a1-2)Gal(b1-3)GlcNAc
# Outline: as §1
# [6] = molecular target: Fuc(a1-2)Gal(b1-3)GlcNAc(b1-2)Man(a1-3)[Fuc(a1-2)Gal(b1-3)GlcNAc(b1-2)Man(a1-6)]Man(b1-4)GlcNAc(b1-4)GlcNAc
# Outline: as §1
# [7] = molecular target: Fuc(a1-2)Gal(b1-3)GlcNAc(b1-2)Man(a1-3)[Fuc(a1-2)Gal(b1-3)GlcNAc(b1-2)Man(a1-6)]Man(b1-4)GlcNAc(b1-4)[Fuc(a1-6)]GlcNAc
# Outline: as §1
# [8] = molecular target: Fuc(a1-2)Gal(b1-3)GlcNAc(b1-3)Gal(b1-4)Glc
# Outline: as §1
# [9] = molecular target: Fuc(a1-2)Gal(b1-3)GlcNAc(b1-3)GalNAc
# Outline: as §1
# [10] = molecular target: Fuc(a1-2)Gal(b1-3)GlcNAc(b1-3)[Fuc(a1-2)Gal(b1-3)GlcNAc(b1-6)]GalNAc
# Outline: as §1
# [11] = molecular target: Fuc(a1-2)Gal(b1-3)GlcNAc(b1-3)[Gal(b1-4)GlcNAc(b1-6)]Gal(b1-4)Glc
# Outline: as §1
# [12] = molecular target: Fuc(a1-2)Gal(b1-3)GlcNAc(b1-3)[Neu5Ac(a2-6)Gal(b1-4)GlcNAc(b1-6)]Gal(b1-4)Glc
# Outline: as §1
# [13] = molecular target: Fuc(a1-2)Gal(b1-3)GlcNAc6S
# Outline: as §1
# [14] = molecular target: Fuc(a1-2)Gal(b1-3)[Fuc(a1-4)]GlcNAc
# Outline: as §1
# [15] = molecular target: Fuc(a1-2)Gal(b1-3)[Fuc(a1-4)]GlcNAc(b1-2)Man(a1-3)[Fuc(a1-2)Gal(b1-3)[Fuc(a1-4)]GlcNAc(b1-2)Man(a1-3)]Man(b1-4)GlcNAc(b1-4)GlcNAc
# Outline: as §1
# [16] = molecular target: Fuc(a1-2)Gal(b1-3)[Fuc(a1-4)]GlcNAc(b1-2)Man(a1-3)[Fuc(a1-2)Gal(b1-3)[Fuc(a1-4)]GlcNAc(b1-2)Man(a1-6)]Man(b1-4)GlcNAc(b1-4)[Fuc(a1-6)]GlcNAc(b1-4)[Fuc(a1-6)]GlcNAc
# Outline: as §1
# [17] = molecular target: Fuc(a1-2)Gal(b1-3)[Fuc(a1-4)]GlcNAc(b1-3)[Fuc(a1-3)[Gal(b1-4)]GlcNAc(b1-6)]Gal(b1-4)Glc
# Outline: as §1
# [18] = molecular target: Fuc(a1-2)Gal(b1-3)[Fuc(a1-4)]GlcNAc(b1-3)[Gal(b1-4)GlcNAc(b1-6)]Gal(b1-4)Glc
# Outline: as §1
# [19] = molecular target: Fuc(a1-2)Gal(b1-4)Fuc(a1-3)]GlcNAc(b1-2)Man(a1-3)[Fuc(a1-2)Gal(b1-4)[Fuc(a1-3)]GlcNAc(b1-2)Man(a1-6)]Man(b1-4)GlcNAc(b1-4)GlcNAc
# Outline: as §1
# Fuc(a1-2)Gal(b1-4)Glc = molecular target: Fuc(a1-2)Gal(b1-4)Glc
# Outline: as §1
# Fuc(a1-2)Gal(b1-4)Glc6S = molecular target: Fuc(a1-2)Gal(b1-4)Glc6S
# Outline: as §1
# Fuc(a1-2)Gal(b1-4)GlcNAc = molecular target: Fuc(a1-2)Gal(b1-4)GlcNAc
# Outline: as §1
# [20] = molecular target: Fuc(a1-2)Gal(b1-4)GlcNAc(b1-2)Man
# Outline: as §1
# [21] = molecular target: Fuc(a1-2)Gal(b1-4)GlcNAc(b1-2)Man(a1-3)[Fuc(a1-2)Gal(b1-4)GlcNAc(b1-2)Man(a1-6)]Man(b1-4)GlcNAc(b1-4)GlcNAc
# Outline: as §1
# [22] = molecular target: Fuc(a1-2)Gal(b1-4)GlcNAc(b1-2)Man(a1-3)[Fuc(a1-2)Gal(b1-4)GlcNAc(b1-2)Man(a1-6)]Man(b1-4)GlcNAc(b1-4)[Fuc(a1-6)]GlcNAc
# Outline: as §1
# [23] = molecular target: Fuc(a1-2)Gal(b1-4)GlcNAc(b1-2)[Fuc(a1-2)Gal(b1-4)GlcNAc(b1-4)]Man(a1-3)[Fuc(a1-2)Gal(b1-4)GlcNAc(b1-2)Man(a1-6)]Man(b1-4)GlcNAc(b1-4)GlcNAc
# Outline: as §1
# [24] = molecular target: Fuc(a1-2)Gal(b1-4)GlcNAc(b1-3)Gal(b1-4)GlcNAc
# Outline: as §1
# [25] = molecular target: Fuc(a1-2)Gal(b1-4)GlcNAc(b1-3)Gal(b1-4)GlcNAc(b1-2)Man(a1-3)[Fuc(a1-2)Gal(b1-4)GlcNAc(b1-3)Gal(b1-4)GlcNAc(b1-2)Man(a1-6)]Man(b1-4)GlcNAc(b1-4)GlcNAc
# Outline: as §1
# [26] = molecular target: Fuc(a1-2)Gal(b1-4)GlcNAc(b1-3)Gal(b1-4)GlcNAc(b1-3)Gal(b1-4)GlcNAc
# Outline: as §1
# [27] = molecular target: Fuc(a1-2)Gal(b1-4)GlcNAc(b1-3)GalNAc
# Outline: as §1
# [28] = molecular target: Fuc(a1-2)Gal(b1-4)GlcNAc(b1-3)[Fuc(a1-2)Gal(b1-4)GlcNAc(b1-6)]GalNAc
# Outline: as §1
# [29] = molecular target: Fuc(a1-2)Gal(b1-4)GlcNAc(b1-3)[Fuc(a1-3)[Gal(b1-4)]GlcNAc(b1-6)]Gal(b1-4)Glc
# Outline: as §1
# [30] = molecular target: Fuc(a1-2)Gal(b1-4)GlcNAc(b1-6)GalNAc
# Outline: as §1
# [31] = molecular target: Fuc(a1-2)Gal(b1-4)GlcNAc6S
# Outline: as §1
# [32] = molecular target: Fuc(a1-2)Gal(b1-4)[Fuc(a1-3)]GlcNAc
# Outline: as §1
# [33] = molecular target: Fuc(a1-2)Gal(b1-4)[Fuc(a1-3)]GlcNAc(b1-2)Man(a1-3)[Fuc(a1-2)Gal(b1-4)[Fuc(a1-3)]GlcNAc(b1-2)Man(a1-6)]Man(b1-4)GlcNAc(b1-4)[Fuc(a1-6)]GlcNAc
# Outline: as §1
# [34] = molecular target: Fuc(a1-2)Gal(b1-4)[Fuc(a1-3)]GlcNAc(b1-2)[Fuc(a1-2)Gal(b1-4)[Fuc(a1-3)]GlcNAc(b1-4)]Man(a1-3)[Fuc(a1-2)Gal(b1-4)[Fuc(a1-3)]GlcNAc(b1-2)Man(a1-6)]Man(b1-4)GlcNAc(b1-4)GlcNAc
# Outline: as §1
# [35] = molecular target: Fuc(a1-2)Gal(b1-4)[Fuc(a1-3)]GlcNAc(b1-3)Gal(b1-4)[Fuc(a1-3)]GlcNAc
# Outline: as §1
# [36] = molecular target: Fuc(a1-2)Gal(b1-4)[Fuc(a1-3)]GlcNAc(b1-3)Gal(b1-4)[Fuc(a1-3)]GlcNAc(b1-3)Gal(b1-4)[Fuc(a1-3)]GlcNAc
# Outline: as §1
# [37] = molecular target: Fuc(a1-2)Gal(b1-4)[Fuc(a1-3)]GlcNAc(b1-3)GalNAc
# Outline: as §1
# [38] = molecular target: Fuc(a1-2)Gal(b1-4)[Fuc(a1-3)]GlcNAc(b1-3)[Neu5Ac(a2-6)Gal(b1-4)GlcNAc(b1-6)]Gal(b1-4)Glc
# Outline: as §1
# [39] = molecular target: Fuc(a1-2)Gal3S(b1-4)GlcNAc
# Outline: as §1
binder,measurement,setting,value
B1,glycan array binding signal (z-score),Fuc(a1-2)Gal,-0.246
same,glycan array binding signal (z-score),Fuc(a1-2)Gal(b1-3)GalNAc,-0.989
same,glycan array binding signal (z-score),[1],-0.746
same,glycan array binding signal (z-score),[2],0.486
same,glycan array binding signal (z-score),[3],-0.103
same,glycan array binding signal (z-score),[4],-0.864
same,glycan array binding signal (z-score),[5],0.019
same,glycan array binding signal (z-score),Fuc(a1-2)Gal(b1-3)GlcNAc,-0.403
same,glycan array binding signal (z-score),[6],0.227
same,glycan array binding signal (z-score),[7],1.05
same,glycan array binding signal (z-score),[8],-0.202
same,glycan array binding signal (z-score),[9],-0.614
same,glycan array binding signal (z-score),[10],-0.055
same,glycan array binding signal (z-score),[11],0.414
same,glycan array binding signal (z-score),[12],-0.742
same,glycan array binding signal (z-score),[13],-0.396
same,glycan array binding signal (z-score),[14],-0.662
same,glycan array binding signal (z-score),[15],1.51
same,glycan array binding signal (z-score),[16],-0.82
same,glycan array binding signal (z-score),[17],-0.948
same,glycan array binding signal (z-score),[18],-0.754
same,glycan array binding signal (z-score),[19],0.876
same,glycan array binding signal (z-score),Fuc(a1-2)Gal(b1-4)Glc,-0.334
same,glycan array binding signal (z-score),Fuc(a1-2)Gal(b1-4)Glc6S,0.567
same,glycan array binding signal (z-score),Fuc(a1-2)Gal(b1-4)GlcNAc,-0.205
same,glycan array binding signal (z-score),[20],-1.1
same,glycan array binding signal (z-score),[21],-0.138
same,glycan array binding signal (z-score),[22],0.028
same,glycan array binding signal (z-score),[23],0.08
same,glycan array binding signal (z-score),[24],-0.368
same,glycan array binding signal (z-score),[25],-0.257
same,glycan array binding signal (z-score),[26],0.815
same,glycan array binding signal (z-score),[27],0.144
same,glycan array binding signal (z-score),[28],0.657
same,glycan array binding signal (z-score),[29],0.033
same,glycan array binding signal (z-score),[30],0.141
same,glycan array binding signal (z-score),[31],-0.796
same,glycan array binding signal (z-score),[32],0.313
same,glycan array binding signal (z-score),[33],0.012
same,glycan array binding signal (z-score),[34],0.291
same,glycan array binding signal (z-score),[35],-0.765
same,glycan array binding signal (z-score),[36],-0.246
same,glycan array binding signal (z-score),[37],0.407
same,glycan array binding signal (z-score),[38],-0.491
same,glycan array binding signal (z-score),[39],-0.491

# 4 records drawn at random from the list so far:
binder,measurement,setting,value
B1,glycan array binding signal (z-score),[20],-1.1
same,glycan array binding signal (z-score),[22],0.028
same,glycan array binding signal (z-score),[9],-0.614
same,glycan array binding signal (z-score),[10],-0.055
